Reference: US20250170098A1, “MOLECULAR JACKHAMMER FOR MECHANICAL DESTRUCTION OF CELLULAR STRUCTURE” (William Marsh Rice University, priority 2022, published 2025)

Experiment: Temperature of the cell suspension under NIR light (photothermal effect)
Set-up: species or system human
Settings: for photothermal effect, temperature of the media: 2 μM, 730 nm light at 80 mW/cm^2 for 10 min

Compound	photothermal effect, temperature of the media	photothermal effect, temperature of the medium (32 μM up to 400 μM, 730 nm light at 80 mW/cm^2)
CN1/C(=C\C=C2C=C(/C=C/C3=[N+](CCCCCC(=O)NCCCCCCN)c4ccc5ccccc5c4C3(C)C)CCC\2)C(C)(C)c2c1ccc1ccccc21 [Cy7.5-amine]	no photothermal effect	–
CC1(C)C(/C=C/C=C/C=C/C=C2\N(CCCCS(=O)(=O)O)c3ccc4ccccc4c3C2(C)C)=[N+](CCCCS(=O)(=O)[O-])c2ccc3ccccc3c21 [ICG, indocynine green]	did not cause a photothermal effect	significant temperature increase
